Results taken from paper doi:10.1101/2025.10.29.685433.
Read-outs that look alike come from different tables or passages of the source. These are yes or no findings as the source states them, for the method shown. Binding seen in cells or lysates may run through a third protein. These calls come from enrichment with a bait or labelling near it, and not all partners need be listed. Sequences can lack the tags named with a protein.

Sequences of proteins named here, by UniProt entry; tags and fusion partners are left off. A change or cut given only in a name is not applied to a line headed by its entry.
UniProt Q12522: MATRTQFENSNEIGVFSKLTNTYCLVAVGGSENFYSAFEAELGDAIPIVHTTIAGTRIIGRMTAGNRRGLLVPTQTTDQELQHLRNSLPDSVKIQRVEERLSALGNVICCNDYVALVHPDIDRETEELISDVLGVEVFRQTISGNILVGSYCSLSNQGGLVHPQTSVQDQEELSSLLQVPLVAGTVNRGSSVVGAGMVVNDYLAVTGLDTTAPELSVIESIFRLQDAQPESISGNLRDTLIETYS

What was measured:
Assay in all cases: affinity purification with mass spectrometry
[1] = molecular target: T1, uL16 P-site loop mutant (uL16^mut), C-terminally Flag-tagged (yeast (S. cerevisiae)) (UniProt P41805)
T1 sequence: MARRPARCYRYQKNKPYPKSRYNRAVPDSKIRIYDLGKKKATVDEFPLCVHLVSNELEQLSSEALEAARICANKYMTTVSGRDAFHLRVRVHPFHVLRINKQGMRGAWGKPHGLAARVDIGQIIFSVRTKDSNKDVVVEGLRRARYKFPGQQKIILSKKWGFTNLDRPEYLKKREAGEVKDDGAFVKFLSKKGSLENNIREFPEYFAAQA

[2] = molecular target: T1, uL16 P-site loop mutant (uL16^mut), C-terminally Flag-tagged (yeast (S. cerevisiae)); remark: listed apart in the source
[3] = molecular target: T1, uL16 P-site loop mutant (uL16^mut), C-terminally Flag-tagged (yeast (S. cerevisiae)); remark: listed apart in the source

## Tif6-V192F (from UniProt Q12522 1-245)
[1]
  binding: binds

B1: Reh1 (protein, UniProt Q06709 1-432)
chain: MSSTFFTCNCCVIQFKTSDLQRYHMKTEWHRYNLKRRIANLPPIGAEQFAEKLQISEKEQAENQVDEFGFPVLKPVMNQSNALPQKQKKPIKSKRGRKVGTNLLKRKDRDIAKEKQNRSVSPSGSISSQLSNLTVGTENTNTDYGEDTVSEYGFTSDSNYEYATSDEELDIADKPSDKENEKITITECIYCGKDNKEVERNVKHMFSEHGLFIPERSYLIDLNGLLEFLIKMIVIDHNCLCCNFHGSGLESIRAHMASKRHCRLPYETKEERQLFAPFYDFTYDDHSISKNLQNDRAITSKLSSVYGAKNDEEDGEVDITLVSSENDINANYTTVSIDESGLELTLPTGARLGHRAGQRYYRQNLPSQPNPNESRRTITAADRRMVSGVTEKQYKKGMKKMQQLEKNAINTQIRREIKRVNFQTHYRDELLQ
[2]
  binding: binds
[3]
  binding: binds
[1]
  binding: binds

B2: Yvh1 (protein, UniProt Q02256 1-364)
chain: MAGNANSVDEEVTRILGGIYLGGIRPIIDHRPLGAEFNITHILSVIKFQVIPEYLIRKGYTLKNIPIDDDDVTDVLQYFDETNRFIDQCLFPNEVEYSPRLVDFKKKPQRGAVFAHCQAGLSRSVTFIVAYLMYRYGLSLSMAMHAVKRKKPSVEPNENFMEQLHLFEKMGGDFVDFDNPAYKQWKLKQSIKLDPSGSELVSNSGMFKDSESSQDLDKLTEAEKSKVTAVRCKKCRTKLALSTSFIAHDPPSKESSEGHFIKRAANSHRIIDIQESQANCSHFFIEPLKWMQPELQGKQELEGKFSCPGCSSKVGGYNWKGSRCSCGKWVIPAIHLQTSKVDQFPLQSTALPNMVNFESEKVNR
[2]
  binding: binds
